Values of other authors as cited in patent US20240336896A1, “MODIFIED PRODUCER CELLS FOR EXTRACELLULAR VESICLE PRODUCTION” (LONZA SALES AG, priority 2021, published 2024).
For at least one compound, name, drawing or mass did not settle the structure.

Tested on: producer cells
Conditions: Kulshreshtha et al., Scientific Reports 2019; cited from earlier work

Q: Which exosome secretion does the source give for CCC(C)(C)C(=O)O[C@H]1C[C@@H](C)C=C2C=C[C@H](C)[C@H](CC[C@@H]3C[C@@H](O)CC(=O)O3)[C@H]21 [Simvastatin, simvastatin] here?
A: reduced exosome secretion
